For at least one compound, name, drawing or mass did not settle the structure.
Test system: fatty acid-induced inflammatory genes in TT sHLO
Assay: Proinflammatory cytokine gene expression in TT-sHLO (RT-qPCR)
Assay type: cell-based, human
Conditions: carriers of the GCKR rs1260326 variant TT (patients and HLO models); obeticholic acid and CCR2/5 inhibitor data not shown
Description: Measurement of insulin responsiveness in sHLO by Western Blot (WB) and gene expression analysis. HLOs and sHLOs were starved with 0.2% FCS/DMEM/F12 for 18 h and then stimulated with insulin (170 ng/ml) for 20 min. HLOs were then washed twice with PBS and lysed with M-PERTM Mammalian Protein Extraction Reagent (Thermo Fisher Scientific Inc.). Protein quantification was measured using the PierceTM Rapid Gold BCA Protein Assay Kit (Thermo Fisher Scientific Inc.). For WB analysis, 10 μg protein were separated on 8% SDS-polyacrylamide gels, transferred to nitrocellulose membranes, and probed with anti-AKT (Clone C67E7, Cell signaling technologies, MA, USA), anti-phospho-AKT (Clone C31[…], Cell signaling technologies), anti-α-tubulin (Clone DM1A, Cell signaling technologies) as indicated. For gene expression analysis, starved HLOs and sHLOs were treated without or with insulin for 6 h and extracted mRNA as previously described. qPCR was carried out using TaqMan gene expression master mix (Applied Biosystems) on a QuantStudio 5 Real-Time PCR System (Thermo Fisher Scientific Inc.). All the results were normalized with 18S. Metformin (MET), nicotinamide riboside (NR) and nitazoxanide (NTZ) treatments. sHLOs were cultured in HCM media in the presence or absence of 250 μg/ml MET, 1 mM NR and 3 μM NTZ. To assess the improvement of lipid accumulation in sHLO, BODIPY staining was performed. […]

Question: `CC[C@H]1[C@@H](O)[C@@H]2[C@H](CC[C@]3(C)[C@@H]([C@H](C)CCC(=O)O)CC[C@@H]23)[C@@]2(C)CC[C@@H](O)C[C@@H]12` [obeticholic acid] was tested. Which “suppressing NASH-associated inflammatory phenotypes” value did it give?
Answer: poor pharmacological benefits
